According to patent US20190194358A1:

What was measured:
[1] = target: Ig kappa light chain (human); assay: human protein microarray (Protoarray), biotinylated synbody and labelled streptavidin
[2] = target: HBV-associated factor (human); assay: Invitrogen ProtoArray Human Protein Microarray v4.0; biotinylated synbody, fluorescently labelled streptavidin; fluorescence intensity
[3] = target: Meckel syndrome, type I (human); assay: as above
[4] = target: Castor, zinc-finger protein 1 (human); assay: as above
[5] = target: Hemochromotosis type 2 (human); assay: as above

binding [1]: binds
binding [2]: binds
binding [3]: binds
binding [4]: binds
binding [5]: binds
B1: SYN21-22 (designed binder)
peptide 1: QYHHFMNLKRQGRAQAYGSG
peptide 2: HAYKGPGDMRRFNHSGMGSG
modifications: C-terminus joined to an amine of the branching lysine

No constants are given. Whether binding was seen depends on the method and setting. A result given as binding can be weak or reduced; the word gives no strength.
